For at least one compound, name, drawing or mass did not settle the structure.
Tests used:
Format in all cases: in vivo
[1] = test system: cytokines in the mouse with atopic dermatitis; assay: Oral preparation: cytokines in the mouse with atopic dermatitis (ProcartaPlex, ELISA); conditions: positive control dexamethasone; compared with induction group
[2] = test system: mouse with atopic dermatitis; assay: Oral preparation: skin lesions (eosinophilic granulocytes) in the mouse with atopic dermatitis; conditions: positive control dexamethasone; compared with induction group
[3] = test system: mouse with atopic dermatitis; assay: Oral preparation: dermatitis score of the mouse with atopic dermatitis; conditions: positive control dexamethasone; compared with induction group
[4] = test system: mouse with atopic dermatitis; assay: Oral preparation: skin thickness of the mouse with atopic dermatitis (H&E stain); conditions: positive control dexamethasone; compared with induction group
[5] = test system: mouse with atopic dermatitis; assay: Oral preparation: weight of subiliac lymph nodes of the mouse with atopic dermatitis; conditions: positive control dexamethasone; compared with induction group
[6] = test system: IgE in the mouse with atopic dermatitis; assay: Oral preparation: IgE in the mouse with atopic dermatitis (ELISA); conditions: day 28; positive control dexamethasone; compared with induction group

C[C@@H]1C[C@H]2[C@@H]3CCC4=CC(=O)C=C[C@]4(C)[C@@]3(F)[C@@H](O)C[C@]2(C)[C@@]1(O)C(=O)CO [dexamethasone]
content of IL-1β [1]: significantly reduce
content of IL-4 [1]: significantly reduce
content of IL-5 [1]: significantly reduce
content of IL-6 [1]: significantly reduce
content of IL-13 [1]: significantly reduce
content of IL-22 [1]: not significantly reduce the content of IL-22
content of INF-γ [1]: significantly reduce
content of TNF-α [1]: significantly reduce
content of TSLP [1]: significantly reduce
infiltration of eosinophilic granules in the dermis [2]: significantly reduce the infiltration of eosinophilic granules in the dermis
dermatitis score [3]: significantly reduce the scores
thickness of the epidermis [4]: significantly reduce the thickness of the epidermis
weight of the subiliac lymph nodes [5]: significantly reduce the weight of the subiliac lymph nodes
content of IgE [6]: significantly reduce the content of IgE

Reference: US12016925B2, “Carbohydrate composition as pharmaceutical ingredient and use thereof” (Medgaea Japan Co., Ltd., priority 2021, dated 2024)
